Data published in publication PMC12714136, “14-3-3θ phosphorylation at S232 reduces its interactome and regulates axonal trafficking” (Disease Models & Mechanisms, 2025).
These are yes or no findings as the source states them, for the method shown. Binding seen in cells or lysates may run through a third protein. A result given as binding can be weak or reduced; the word gives no strength.

Columns and labels:
[1] = target: β-spectrin (M17 neuroblastoma cells) (human (endogenous in SK-N-BE(2)-M17)); assay: proximity ligation; fixed SK-N-BE(2)-M17 cells; antibodies against 14-3-3θ and β-spectrin or dynamin 1; single-antibody controls
[2] = target: β-spectrin (mouse cortex) (mouse (endogenous in cortex)); assay: co-IP; wild-type mouse cortex in Pierce IP buffer (25 mM Tris-HCl pH 7.4, 150 mM NaCl, 1 mM EDTA, 1% NP40, 5% glycerol); IP with anti-β-spectrin or anti-dynamin 1 antibody overnight, rabbit IgG control, dynabeads; blot for 14-3-3θ

binding [1] | binding [2] | Binder
binds |  | 14-3-3θ (endogenous, M17 neuroblastoma cells) (protein, UniProt P27348 1-245) MEKTELIQKAKLAEQAERYDDMATCMKAVTEQGAELSNEERNLLSVAYKNVVGGRRSAWRVISSIEQKTDTSDKKLQLIKDYREKVESELRSICTTVLELLDKYLIANATNPESKVFYLKMKGDYFRYLAEVACGDDRKQTIDNSQGAYQEAFDISKKEMQPTHPIRLGLALNFSVFYYEILNNPELACTLAKTAFDEAIAELDTLNEDSYKDSTLIMQLLRDNLTLWTSDSAGEECDAAEGAEN
 | binds | 14-3-3θ (wild type, mouse cortex) (protein, UniProt P68254 1-245) MEKTELIQKAKLAEQAERYDDMATCMKAVTEQGAELSNEERNLLSVAYKNVVGGRRSAWRVISSIEQKTDTSDKKLQLIKDYREKVESELRSICTTVLELLDKYLIANATNPESKVFYLKMKGDYFRYLAEVACGDDRKQTIENSQGAYQEAFDISKKEMQPTHPIRLGLALNFSVFYYEILNNPELACTLAKTAFDEAIAELDTLNEDSYKDSTLIMQLLRDNLTLWTSDSAGEECDAAEGAEN
